From paper PMC6212790, “How bacterial xenogeneic silencer rok distinguishes foreign from self DNA in its resident genome” (Nucleic Acids Research, 2018)

Experiments:
[1] = biological target: T1, Rok-C114-185 T156A (Bacillus subtilis subsp. subtilis str. 168) (UniProt O34857); assay: NMR HSQC; details: NMR samples: 50 mM sodium phosphate, 50 mM NaCl, pH 6.0; recombinant protein; residues 114-185; protein details: C-terminal His6
T1 sequence (looked up): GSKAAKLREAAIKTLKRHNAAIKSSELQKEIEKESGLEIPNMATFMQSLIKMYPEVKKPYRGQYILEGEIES

[2] = biological target: T2, Rok-C114-185 K171A (Bacillus subtilis subsp. subtilis str. 168) (UniProt O34857); assay: NMR HSQC; details: NMR samples: 50 mM sodium phosphate, 50 mM NaCl, pH 6.0; recombinant protein; residues 114-185; protein details: C-terminal His6
T2 sequence (looked up): T1 sequence (looked up) with A43T, K58A

[3] = biological target: T3, Rok-C114-185 R174A (Bacillus subtilis subsp. subtilis str. 168) (UniProt O34857); assay: NMR HSQC; details: NMR samples: 50 mM sodium phosphate, 50 mM NaCl, pH 6.0; recombinant protein; residues 114-185; protein details: C-terminal His6
T3 sequence (looked up): T1 sequence (looked up) with A43T, R61A

[4] = biological target: T4, Rok-C114-185 N154D (Bacillus subtilis subsp. subtilis str. 168) (UniProt O34857); assay: ITC; details: ITC: sodium phosphate buffer, 200 mM NaCl, pH 6, 277 K, 50 uM protein in cell titrated with 750 uM Seq1 DNA; recombinant protein; residues 114-185; protein details: C-terminal His6
T4 sequence (looked up): T1 sequence (looked up) with N41D, A43T

Measured: binding result

CTAATAACTAGTTATTAG (double strand) [Seq1]
binds more weakly: all assays above

Changes are numbered by the printed parent chain. Weaker means in comparison with the reference protein, sequence or condition of that experiment. Where a protein sequence is shown, tags need not be part of it.
